# From the supplement of paper PMC3334620
# The full ranking holds about 33,000 sequences; the median of “E-score (-0.5 to 0.5)” is about -0.016, and the highest 2% start at about 0.3. Some of the results follow.
# Molecular target: T1, Yer184c (UniProt P39961)
# T1 sequence: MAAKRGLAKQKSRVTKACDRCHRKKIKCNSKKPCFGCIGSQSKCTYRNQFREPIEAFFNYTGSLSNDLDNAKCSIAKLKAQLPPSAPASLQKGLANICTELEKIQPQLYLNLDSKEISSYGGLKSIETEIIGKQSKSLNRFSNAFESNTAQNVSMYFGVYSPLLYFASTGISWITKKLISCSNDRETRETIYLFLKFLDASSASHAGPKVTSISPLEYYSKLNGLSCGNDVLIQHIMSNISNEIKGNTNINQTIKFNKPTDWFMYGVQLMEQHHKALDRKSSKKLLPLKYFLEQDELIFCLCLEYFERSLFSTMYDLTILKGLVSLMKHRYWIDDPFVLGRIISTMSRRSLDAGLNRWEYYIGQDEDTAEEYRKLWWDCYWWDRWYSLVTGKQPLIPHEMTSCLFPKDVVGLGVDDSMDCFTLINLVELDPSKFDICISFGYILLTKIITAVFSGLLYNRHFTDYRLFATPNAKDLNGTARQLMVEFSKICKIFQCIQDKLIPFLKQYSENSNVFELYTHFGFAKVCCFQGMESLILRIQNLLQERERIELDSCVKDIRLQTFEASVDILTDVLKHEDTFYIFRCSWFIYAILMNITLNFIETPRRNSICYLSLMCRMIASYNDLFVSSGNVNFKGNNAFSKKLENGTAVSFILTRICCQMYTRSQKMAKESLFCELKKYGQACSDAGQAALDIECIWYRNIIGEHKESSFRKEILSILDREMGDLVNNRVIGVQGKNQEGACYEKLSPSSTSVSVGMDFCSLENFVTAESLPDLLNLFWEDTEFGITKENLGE
# Assay: PBM E-score (8-mer binding enrichment) (E-score (-0.5 to 0.5)); higher = stronger / more preferred TF binding
# Settings: protein concentration: 100 nM; construct: GST-full length
# Method: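 Universal 'all 10-mer' protein binding microarrays (Agilent AMADID 015681) probed with GST-tagged S. cerevisiae TFs (full-length or DBD) made by in vitro transcription/translation (PURExpress), about 100-200 nM. Bound TF was detected with fluorescent anti-GST. Each ungapped 8-mer (which stands for itself and its reverse complement) is scored by the PBM enrichment score (E-score), a modified Wilcoxon-Mann-Whitney statistic from -0.5 to +0.5, computed with the Universal PBM Analysis Suite. Scale: above 0.35 generally sequence-specific binding.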
row,Sequence,PBM E-score
1,ATAATGGA,0.0508
2,CATGATTC,-0.0531
3,ACACAACC,0.00216
4,GTCAGAAA,0.0635
5,AATAAAAC,0.099
6,GGCAAGTA,0.0943
7,CGTGCAGC,-0.0794
8,GGGGGCCA,-0.261
9,ATTACTAA,0.153
10,ACCCATTC,-0.00104
11,ATACTATG,0.0693
12,ACATGCTG,-0.257
13,GTATTCCA,0.0616
14,CGAAGTGC,0.112
15,CCTAGGCG,-0.27
16,TTACTAAA,0.241
17,AGACCGGG,0.179
18,CCCGGGCA,0.217
19,CTCGAATC,-0.0123
20,AGCGCTAG,-0.079
21,CTACCTCA,-0.0606
22,CATGTCCG,0.0774
23,ACGCAAGG,0.036
24,CACACGCG,-0.0224
25,CCGGACGA,0.323

row,Sequence,PBM E-score
1,CCTTCAGA,-0.107
2,ATAACAGA,0.187
3,ACCGACTG,0.0253
4,AACAAAAC,0.176
5,AGGGTTGA,-0.131
6,AAATCCTT,-0.0289
7,CACCGGTC,-0.204
8,CAGTAGGA,-0.141
9,TACCGGCA,0.251
10,ATTACGAC,0.126
11,GAGTCCCA,-0.0614
12,CCCGTTCC,-0.0111
13,AAACTTAA,0.237
14,AGTTAGGG,-0.132
15,GAGATTCC,0.0978
16,AATCTTCC,0.0694
17,ATGTTAGG,0.0113
18,AGAAGTCT,-0.146
19,CTACATTA,-0.08
20,CACAAACA,0.161
21,AGAACACC,-0.0272
22,CCATTAGA,-0.157
23,ATCTAATG,-0.0371
24,ACACAAGA,0.0391
25,ACAAGCAC,-0.0254

# For convenience, some entries already given.
row,Sequence,PBM E-score
6,AAATCCTT,-0.0289
7,CACCGGTC,-0.204
8,CAGTAGGA,-0.141
9,TACCGGCA,0.251

# The results go on.

row,Sequence,PBM E-score
1,GTGTACGA,0.00148
2,AAAAAGTG,-0.00593
3,CCGGTCGC,0.221
4,GCCCAGAC,-0.346
5,ATAGTGAT,0.0308
6,CCTGAAAA,0.0179
7,AATAAGTA,0.051
8,AGATTTGA,0.0355
9,GCGCCCTA,-0.135
10,GGGGTTCA,-0.309
11,AGTCCAAC,-0.207
12,ATCTTTCA,0.149
13,AGTCTTGC,0.00551
14,TAGAAAGA,-0.2
15,AATAGGAG,-0.13
16,GACGCAGC,-0.183
17,AATTGAAG,0.0581
18,AGAAGCGC,0.0964
19,ACTAGGAG,-0.115
20,ACTCTTAC,0.182
21,AAGTGTAG,-0.0984
22,CGGTCCGA,0.335
23,CGACACTA,-0.0271
24,AGAACAAC,-0.0558
25,CATTTATA,0.115

row,Sequence,PBM E-score
1,GCCGTGGA,0.0642
2,AAGCCCTT,-0.199
3,CATACCCA,-0.077
4,AGGGGACG,-0.122
5,CTGGTTCA,-0.00019
6,CGGTGGAG,-0.0794
7,CTCAAGCC,-0.0779
8,GAGAGAGC,-0.193
9,CGGCCGAA,0.415
10,AGCCTTAT,-0.149
11,GGGATCAA,-0.0278
12,GACGGACA,0.121
13,AGGCCGTG,0.117
14,AAGTAATT,0.186
15,ATTATTTC,0.281
16,CCTCCCAG,-0.203
17,CACAACGC,-0.0651
18,GAATGCGA,0.0377
19,CTATCCAG,0.0923
20,AGTAGCTA,0.0971
21,AGCATACA,0.0536
22,GGTAGCAC,-0.282
23,GTTTCGGA,0.304
24,ATTTCAAA,0.136
25,AATAGCTG,-0.0614

row,Sequence,PBM E-score
1,CACGCGCA,-0.11
2,GGTGGGAA,-0.13
3,CCTCCGCC,-0.0659
4,ATCCTTGA,0.0411
5,CGAGATGC,0.0108
6,ACCCTCAA,-0.133
7,GGGACCCA,-0.117
8,AATTTCCG,0.406
9,ATATCAGG,-0.0174
10,CGCCATGA,-0.155
11,TACTGTAA,0.0672
12,ATTGTCTC,0.00416
13,TGAAACCA,0.181
14,AGTAGGCG,-0.0424
15,CTATAGTA,0.201
16,CAACTCGA,0.0102
17,ACGACTGA,-0.0424
18,AGTTGATC,-0.0324
19,ACTGCCAA,0.0188
20,AGGAGAAT,0.0489
21,AGAATATC,0.0794
22,ACGAACGA,0.0481
23,AAGGTCTC,-0.11
24,TTCGCAAA,0.228
25,AACCCCTG,-0.354

row,Sequence,PBM E-score
1,ATCTAAAC,-0.00512
2,GCAACGAA,0.121
3,AGACGTGA,-0.00097
4,ATCAATGG,-0.188
5,CGTCATGC,-0.219
6,AACTGAGC,-0.0584
7,CCGATAGG,0.0592
8,AGACATGG,-0.129
9,GTTTGTGA,0.0746
10,CATGCGCC,-0.092
11,CCCAGCGC,-0.136
12,AATTGCAA,0.139
13,ATGACGTC,-0.0365
14,AATTGATG,0.222
15,AACAGGTT,-0.096
16,CAATCAGC,-0.05
17,AGTTCATG,0.187
18,CCTCGTTC,-0.224
19,TATTACGA,0.193
20,ATATTGAT,0.21
21,ATCAAACA,0.109
22,AATCCCAA,-0.161
23,CACACCTA,-0.119
24,CGGGGCCA,0.0826
25,CAATTATG,0.163

row,Sequence,PBM E-score
1,ACTGGCAT,-0.229
2,ACGCATAT,-0.131
3,AGGTACTG,-0.0384
4,GGGACCAC,-0.132
5,ATTAGACA,0.0253
6,AAATTAAC,0.159
7,AGCCGATG,0.131
8,ACGGAGAT,0.225
9,TTTCGAAA,0.117
10,ACCGAATC,0.238
11,CTGCCACC,-0.305
12,ACAAGCGC,-0.116
13,TGTAGACA,0.0631
14,CATGATAA,0.0911
15,CGGCTCAG,0.337
16,CTGTTCTA,0.0812
17,ACGCATAG,-0.204
18,ATCGTGTA,0.0872
19,CTCGGAAC,0.358
20,ACGCATCT,0.0571
21,GCATGTCC,-0.0656
22,CAGTCGCA,-0.215

# Some of the entries so far, with tabs:
row	Sequence	PBM E-score
13	AAACTTAA	0.237
14	CATGATAA	0.0911

# An excerpt of these results, bar-delimited:
row | Sequence | PBM E-score
19 | CTCGGAAC | 0.358
20 | ACGCATCT | 0.0571
